For the assay, the target named is T1, BirA-SH3TC2 (UniProt Q8TF17).
T1 sequence: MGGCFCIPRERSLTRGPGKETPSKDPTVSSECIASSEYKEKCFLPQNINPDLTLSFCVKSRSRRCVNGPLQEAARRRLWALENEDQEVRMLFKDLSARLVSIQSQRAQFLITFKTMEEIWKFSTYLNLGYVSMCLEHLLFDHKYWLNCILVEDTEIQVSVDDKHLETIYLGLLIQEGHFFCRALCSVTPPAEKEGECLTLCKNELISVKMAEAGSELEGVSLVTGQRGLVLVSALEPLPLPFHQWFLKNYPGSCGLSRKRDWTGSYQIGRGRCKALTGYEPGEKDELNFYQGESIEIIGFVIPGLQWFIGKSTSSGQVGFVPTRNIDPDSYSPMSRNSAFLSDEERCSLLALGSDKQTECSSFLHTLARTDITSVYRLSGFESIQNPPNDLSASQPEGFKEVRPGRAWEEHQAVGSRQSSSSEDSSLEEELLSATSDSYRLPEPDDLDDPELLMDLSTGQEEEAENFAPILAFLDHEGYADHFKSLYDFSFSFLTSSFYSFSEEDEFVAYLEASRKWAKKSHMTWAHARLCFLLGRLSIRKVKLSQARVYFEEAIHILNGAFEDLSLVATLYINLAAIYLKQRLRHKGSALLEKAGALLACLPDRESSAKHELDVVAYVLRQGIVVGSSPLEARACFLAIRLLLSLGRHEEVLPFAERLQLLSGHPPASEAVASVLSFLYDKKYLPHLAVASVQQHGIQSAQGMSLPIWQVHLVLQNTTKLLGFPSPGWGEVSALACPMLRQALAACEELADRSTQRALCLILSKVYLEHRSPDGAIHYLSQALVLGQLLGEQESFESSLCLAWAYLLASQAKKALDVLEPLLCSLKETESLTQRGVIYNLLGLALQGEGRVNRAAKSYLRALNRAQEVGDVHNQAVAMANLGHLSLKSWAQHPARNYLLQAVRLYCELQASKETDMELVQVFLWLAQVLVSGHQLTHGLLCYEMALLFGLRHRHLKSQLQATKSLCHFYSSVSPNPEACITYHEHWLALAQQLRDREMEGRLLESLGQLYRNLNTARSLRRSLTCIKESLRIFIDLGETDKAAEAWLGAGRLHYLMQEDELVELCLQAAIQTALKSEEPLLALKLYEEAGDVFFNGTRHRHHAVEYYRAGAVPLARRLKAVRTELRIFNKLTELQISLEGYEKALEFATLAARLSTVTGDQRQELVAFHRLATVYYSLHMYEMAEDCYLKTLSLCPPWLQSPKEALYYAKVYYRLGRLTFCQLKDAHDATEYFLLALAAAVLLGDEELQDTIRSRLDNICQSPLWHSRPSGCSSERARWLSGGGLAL
The experiment in a line: proximity labelling; BioID: RPE cells stably expressing BirA or BirA-SH3TC2, 50 μM biotin for 24 h at 37 °C; biotinylated proteins isolated from the lysate on streptavidin beads; LC-MSMS and immunoblot.

For 1 substance, binding results are on record in publication PMC4879868.

Results are given in words; binding and its absence hold for the method and conditions named. In cells and extracts the contact can be indirect. These calls come from enrichment with a bait or labelling near it, and not all partners need be listed.

Turning to integrin-α6 (receptor), the binding entry is given as “binds”.
